The source of these data is article PMC7819943, “Rice protein-binding microarrays: a tool to detect cis-acting elements near promoter regions in rice”.

The chains behind the UniProt entries cited, without tags or fusion partners.
UniProt Q0JBA9, entry or part of it: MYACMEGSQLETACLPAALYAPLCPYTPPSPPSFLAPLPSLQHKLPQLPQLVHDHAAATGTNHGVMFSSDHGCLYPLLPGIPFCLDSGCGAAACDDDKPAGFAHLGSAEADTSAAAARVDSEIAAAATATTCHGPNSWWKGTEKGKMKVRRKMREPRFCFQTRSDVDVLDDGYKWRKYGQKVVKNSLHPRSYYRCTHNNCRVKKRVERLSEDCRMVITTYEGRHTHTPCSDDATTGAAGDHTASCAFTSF

This is one part of the list.

This experiment addresses OsWRKY34 (Oryza sativa, UniProt Q0JBA9 1-250). Put plainly: protein-binding microarray (RPBM); PBS, 2% BSA, 51.3 ng/ul salmon testes DNA, 50 uM zinc acetate, 200 nM TF, 25 C, 1 h; high values mean tight binding. Conditions: protein: recombinant; tags: N-terminal polyhistidine and DsRed monomer fusion (pET32a); label: CyDye5-dUTP incorporated in the synthesized complementary strand; 3' TTTTT single-stranded linker to array surface; dsDNA, one strand shown. Summed up:
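Transcription factors were made in E. coli BL21-CodonPlus as N-terminal fusions to a polyhistidine tag and DsRed, then purified on Ni–NTA. After primer extension with Cy5-dUTP and blocking with 2% BSA, a custom Agilent array was exposed for 1 h at 25 °C to 200 nM protein in PBS, 2% BSA, salmon testes DNA and 50 µM zinc acetate. Washed arrays were scanned on an Axon 4000B, and the binding signal is per-feature fluorescence intensity in arbitrary units.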
With “AAATGTTGCAGTGATTTTTTTTGGTATTCTTTTTGCCGAACGGAGTCACCTAGTGCAG”, the binding signal is 8260 fluorescence intensity (a.u.).

On to “CTCCCTTGATATCTAGCTCATGATTGAATCGTCTTCCTCACGGAGTCACCTAGTGCAG”, for which the binding signal is 9370 fluorescence intensity (a.u.).

For the sequence “ACATTTTATCTTTTGACCTCGTCCCCATTAGAGCCGGCGTCGGAGTCACCTAGTGCAG”, the binding signal is 8160 fluorescence intensity (a.u.).

Take “ATGGTATATTTCTGCACAGGTTTTTTCATCCCGAATATTTCGGAGTCACCTAGTGCAG”: the binding signal was 13600 fluorescence intensity (a.u.).

“TTGTTTCTATAAGTTTAGGGTACACATTTCTGGTTTTTGTCGGAGTCACCTAGTGCAG”: the binding signal is 9140 fluorescence intensity (a.u.).

With “ACATATGTACGGTCTTTTCTTGTGTAGTGCAATCTTATCTCGGAGTCACCTAGTGCAG”, the binding signal was 9210 fluorescence intensity (a.u.).

For the sequence “GACCGCTTTGACCTCCGTAACCACAGCCGCTCGATAAAATCGGAGTCACCTAGTGCAG”, the binding signal is 9380 fluorescence intensity (a.u.).

Turning to “TATCTGACTTGCTTCGATTCATTGATCGTGTATAGAGTACCGGAGTCACCTAGTGCAG”, the binding signal is 8050 fluorescence intensity (a.u.).

Turning to “CGATCCGATTCCGCGGCGCACTGTCAATCCCATTCCCATTCGGAGTCACCTAGTGCAG”, the binding signal is 9460 fluorescence intensity (a.u.).

As to “ATCTCTTACTACTCGTTTCACTACTAGTATTTGTCAGTTTCGGAGTCACCTAGTGCAG”, the binding signal is 9870 fluorescence intensity (a.u.).

Take “CGCCGCCTCCTCGTCCGCCTCCGCGCGCGCGTAACCCGGCCGGAGTCACCTAGTGCAG”: the binding signal is 12400 fluorescence intensity (a.u.).

Consider “GCCACTTCTACACACACAGCTAGCACCAACAACCCTATATCGGAGTCACCTAGTGCAG”, for which the binding signal was 9480 fluorescence intensity (a.u.).

As to “TCGATTCCGGCGTGCGAATTCCTCCACCTCGCCGCCGCCGCGGAGTCACCTAGTGCAG”, the binding signal was 8810 fluorescence intensity (a.u.).

On to “CTCTTGCTCTGCAGGTTGGGTTTCTTTCCTTCCTCAATTTCGGAGTCACCTAGTGCAG”, for which the binding signal was 8290 fluorescence intensity (a.u.).

In the case of “GATCCATTCGATCGACGACCAACCACCTCTCCATAATATACGGAGTCACCTAGTGCAG”, the binding signal was 10200 fluorescence intensity (a.u.).

For the sequence “CGCATTGTTTTCTCCTCGATAGTATATCTCCTTCTTCTGTCGGAGTCACCTAGTGCAG”, the binding signal was 9120 fluorescence intensity (a.u.).

As to “CTCGCATCACGGTGATTTTCTTACCTACGTTTCGAACCACCGGAGTCACCTAGTGCAG”, the binding signal was 10400 fluorescence intensity (a.u.).

Take “CCCTCTCTCTCCGTCTCTCTCCCTCCCAAACCCTCGCGCGCGGAGTCACCTAGTGCAG”: the binding signal is 8410 fluorescence intensity (a.u.).

Consider “ACGAAGCCCAATAATAGCCCATGTGATCCTACCCTCGCGGCGGAGTCACCTAGTGCAG”, for which the binding signal is 8100 fluorescence intensity (a.u.).

In the case of “TCCATGGATATTTTGTCTCTTCTGCTTGATCACTAGGCCCCGGAGTCACCTAGTGCAG”, the binding signal was 10100 fluorescence intensity (a.u.).

Regarding “AATTAGTCCATTAGTGTCATCAGCATGCTTAACAAGAACTCGGAGTCACCTAGTGCAG”, the binding signal is 8420 fluorescence intensity (a.u.).

As to “ATAAGCCAAACAAGCCTTTTATCCGAATCTTTTGTTTGTACGGAGTCACCTAGTGCAG”, the binding signal was 8070 fluorescence intensity (a.u.).

Consider “CTCCTCTCTGACTCTTCTCCTTCACCTCCATCTTCTTCTTCGGAGTCACCTAGTGCAG”, for which the binding signal was 11000 fluorescence intensity (a.u.).

Consider “GGCGCCATTCCCCGAATGATTATTAGCTACTCCACAGCGTCGGAGTCACCTAGTGCAG”, for which the binding signal was 8540 fluorescence intensity (a.u.).

For the sequence “TAGTAAAGTGACCTACATTGTTTTTATCAGTTAAATTTATCGGAGTCACCTAGTGCAG”, the binding signal was 8280 fluorescence intensity (a.u.).

“TTTATTCATGCTTGTTGTGCCTGAATGATTTGCATACTTCCGGAGTCACCTAGTGCAG”: the binding signal was 9120 fluorescence intensity (a.u.).

“TATAAGTTATTTTGACTTTCTTTTTTGCTAGTTAAATTTTCGGAGTCACCTAGTGCAG”: the binding signal is 8680 fluorescence intensity (a.u.).

“TGATCCAAGTTTTGGCCTTGTTTAGTTTTAAACTTTTTCTCGGAGTCACCTAGTGCAG”: the binding signal was 8680 fluorescence intensity (a.u.).

For the sequence “AATCCTGCATATTGACATTTTTATTCTGCATGTTGATCTCCGGAGTCACCTAGTGCAG”, the binding signal is 9260 fluorescence intensity (a.u.).

As for “CCAATCGGTCTCCTTATCCCCATTTTTCTCTCTGTGCTGTCGGAGTCACCTAGTGCAG”, the binding signal is 9460 fluorescence intensity (a.u.).

For the sequence “GGGAGGGCTAACCTTGGATGGACTAGAGCCGCGGCGGCGGCGGAGTCACCTAGTGCAG”, the binding signal is 10300 fluorescence intensity (a.u.).

“CGCGATATCCTCGTCCCGTACGTGTTGCCCATTTTGCCGCCGGAGTCACCTAGTGCAG”: the binding signal was 10600 fluorescence intensity (a.u.).

For “TGTTTGATCGACCTCTCTTCTTTGTTTTTCTCGTTCGATTCGGAGTCACCTAGTGCAG”, the binding signal was 11100 fluorescence intensity (a.u.).

In the case of “ACATGTCCAGGGGTATATTTGTCCATTCACCACAAATTTACGGAGTCACCTAGTGCAG”, the binding signal is 8800 fluorescence intensity (a.u.).

As to “ATCTGTAGTCCGTTGCTCTTCTCTCTCATATTTTATCTCGCGGAGTCACCTAGTGCAG”, the binding signal was 11700 fluorescence intensity (a.u.).

Take “TTTTTAATAGATGACGCCGTTGACTTTTTCTCACATGTTTCGGAGTCACCTAGTGCAG”: the binding signal is 34300 fluorescence intensity (a.u.).

On to “CCTTTTCGCAAACCAAGCAATACTTTCTTTAGGCGTCCTCCGGAGTCACCTAGTGCAG”, for which the binding signal is 8060 fluorescence intensity (a.u.).

As for “TCCCGCGGGTCCCACTTCCTTTTCTCTTCTTTCTTCTAGTCGGAGTCACCTAGTGCAG”, the binding signal was 8330 fluorescence intensity (a.u.).

For the sequence “CAATTTTTTCTCATCAGGTATTAATATCTGGGTTTGGATTCGGAGTCACCTAGTGCAG”, the binding signal was 8070 fluorescence intensity (a.u.).

Regarding “CCGCCCGCCTTCCACTGCCAGCTGAAGGTACTGGAGCTTTCGGAGTCACCTAGTGCAG”, the binding signal was 9220 fluorescence intensity (a.u.).

Regarding “AGCACATTTGCACTCCATTCAACATACTTTGCGAGTCCCTCGGAGTCACCTAGTGCAG”, the binding signal was 8270 fluorescence intensity (a.u.).

Consider “AAGACGAATGGTCAAACATGTTTAAAAAAGTCAACGACGGCGGAGTCACCTAGTGCAG”, for which the binding signal is 10600 fluorescence intensity (a.u.).
